Measured values from the supplement of paper PMC8728848.
The other results are listed elsewhere or left out.

Key:
Experiment in all cases: glycan array binding signal (z-score within array); higher = stronger binding
Conditions in all cases: glycan notation: IUPAC condensed, linker removed
[1] = biological target: Neu5Ac(a2-6)Gal(b1-4)GlcNAc(b1-3)Gal(b1-4)GlcNAc(b1-3)GalNAc
Method in brief: (§1)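 Glycan array data came from 3228 arrays in the Consortium for Functional Glycomics database, and only arrays with an available protein sequence were kept. Glycan names were put into IUPAC-condensed notation, and columns mapping to the same glycan were averaged. The binding signal is a within-array Z-score, averaged across arrays of one protein sequence run at different concentrations or buffers and across linkers. A negative Z-score can be read as non-binding.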

[2] = biological target: Neu5Ac(a2-6)Gal(b1-4)GlcNAc(b1-3)Gal(b1-4)GlcNAc(b1-3)[Neu5Ac(a2-6)Gal(b1-4)GlcNAc(b1-3)Gal(b1-4)GlcNAc(b1-6)]GalNAc
Method in brief: as §1

[3] = biological target: Neu5Ac(a2-6)Gal(b1-4)GlcNAc(b1-3)Gal(b1-4)GlcNAc(b1-6)[Gal(b1-3)]GalNAc
Method in brief: as §1

[4] = biological target: Neu5Ac(a2-6)Gal(b1-4)GlcNAc(b1-3)Gal(b1-4)[Fuc(a1-3)]GlcNAc(b1-3)Gal(b1-4)[Fuc(a1-3)]GlcNAc
Method in brief: as §1

[5] = biological target: Neu5Ac(a2-6)Gal(b1-4)GlcNAc(b1-3)GalNAc
Method in brief: as §1

[6] = biological target: Neu5Ac(a2-6)Gal(b1-4)GlcNAc(b1-3)[Neu5Ac(a2-6)Gal(b1-4)GlcNAc(b1-6)]GalNAc
Method in brief: as §1

[7] = biological target: Neu5Ac(a2-6)Gal(b1-4)GlcNAc(b1-6)GalNAc
Method in brief: as §1

[8] = biological target: Neu5Ac(a2-6)Gal(b1-4)GlcNAc(b1-6)[Gal(b1-3)GlcNAc(b1-3)]Gal(b1-4)Glc
Method in brief: as §1

[9] = biological target: Neu5Ac(a2-6)Gal(b1-4)GlcNAc(b1-6)[Gal(b1-3)]GalNAc
Method in brief: as §1

[10] = biological target: Neu5Ac(a2-6)Gal(b1-4)GlcNAc6S
Method in brief: as §1

[11] = biological target: Neu5Ac(a2-6)GalNAc
Method in brief: as §1

[12] = biological target: Neu5Ac(a2-6)GalNAc(b1-4)GlcNAc
Method in brief: as §1

[13] = biological target: Neu5Ac(a2-6)GalNAc(b1-4)GlcNAc6S
Method in brief: as §1

[14] = biological target: Neu5Ac(a2-6)GlcNAc(b1-4)GlcNAc
Method in brief: as §1

[15] = biological target: Neu5Ac(a2-6)GlcNAc(b1-4)GlcNAc(b1-4)GlcNAc
Method in brief: as §1

[16] = biological target: Neu5Ac(a2-8)Neu5Ac
Method in brief: as §1

[17] = biological target: Neu5Ac(a2-8)Neu5Ac(a2-3)Gal(b1-3)GalNAc(b1-4)[Neu5Ac(a2-3)]Gal(b1-4)Glc
Method in brief: as §1

[18] = biological target: Neu5Ac(a2-8)Neu5Ac(a2-3)Gal(b1-3)GalNAc(b1-4)[Neu5Ac(a2-8)Neu5Ac(a2-3)]Gal(b1-4)Glc
Method in brief: as §1

[19] = biological target: Neu5Ac(a2-8)Neu5Ac(a2-3)Gal(b1-4)Glc
Method in brief: as §1

[20] = biological target: Neu5Ac(a2-8)Neu5Ac(a2-3)Gal(b1-4)GlcNAc
Method in brief: as §1

[21] = biological target: Neu5Ac(a2-8)Neu5Ac(a2-3)[Gal(b1-3)GalNAc(b1-4)]Gal(b1-4)Glc
Method in brief: as §1

[22] = biological target: Neu5Ac(a2-8)Neu5Ac(a2-3)[GalNAc(b1-4)]Gal(b1-4)Glc
Method in brief: as §1

[23] = biological target: Neu5Ac(a2-8)Neu5Ac(a2-8)Neu5Ac
Method in brief: as §1

[24] = biological target: Neu5Ac(a2-8)Neu5Ac(a2-8)Neu5Ac(a2-3)Gal(b1-4)Glc
Method in brief: as §1

[25] = biological target: Neu5Ac(a2-8)Neu5Ac(a2-8)Neu5Ac(a2-3)[Gal(b1-3)GalNAc(b1-4)]Gal(b1-4)Glc
Method in brief: as §1

[26] = biological target: Neu5Ac(a2-8)Neu5Ac(a2-8)Neu5Ac(a2-3)[GalNAc(b1-4)]Gal(b1-4)Glc
Method in brief: as §1

[27] = biological target: Neu5Ac(a2-8)Neu5Ac(a2-8)Neu5Ac(a2-8)Neu5Ac(a2-3)[GalNAc(b1-4)]Gal(b1-4)Glc
Method in brief: as §1

[28] = biological target: Neu5Ac(a2-8)Neu5Gc(a2-3)Gal(b1-4)GlcNAc
Method in brief: as §1

[29] = biological target: Neu5Ac(b2-6)Gal(b1-4)GlcNAc
Method in brief: as §1

[30] = biological target: Neu5Ac(b2-6)GalNAc
Method in brief: as §1

[31] = biological target: Neu5Ac9Ac(a2-3)Gal(b1-3)GlcNAc
Method in brief: as §1

[32] = biological target: Neu5Ac9Ac(a2-3)Gal(b1-4)GlcNAc
Method in brief: as §1

[33] = biological target: Neu5Ac9Ac(a2-6)Gal(b1-4)GlcNAc
Method in brief: as §1

[34] = biological target: Neu5Gc(a2-3)Gal(b1-3)GlcNAc
Method in brief: as §1

[35] = biological target: Neu5Gc(a2-3)Gal(b1-3)[Fuc(a1-4)]GlcNAc
Method in brief: as §1

[36] = biological target: Neu5Gc(a2-3)Gal(b1-4)Glc
Method in brief: as §1

[37] = biological target: Neu5Gc(a2-3)Gal(b1-4)GlcNAc
Method in brief: as §1

[38] = biological target: Neu5Gc(a2-3)Gal(b1-4)GlcNAc(b1-3)Gal(b1-4)GlcNAc(b1-2)Man(a1-3)[Neu5Gc(a2-3)Gal(b1-4)GlcNAc(b1-3)Gal(b1-4)GlcNAc(b1-2)Man(a1-6)]Man(b1-4)GlcNAc(b1-4)GlcNAc
Method in brief: as §1

[39] = biological target: Neu5Gc(a2-3)Gal(b1-4)[Fuc(a1-3)]GlcNAc
Method in brief: as §1

[40] = biological target: Neu5Gc(a2-6)Gal(b1-4)GlcNAc
Method in brief: as §1

[41] = biological target: Neu5Gc(a2-6)GalNAc
Method in brief: as §1

[42] = biological target: Neu5Gc(a2-8)Neu5Ac(a2-3)Gal(b1-4)GlcNAc
Method in brief: as §1

[43] = biological target: Neu5Gc(a2-8)Neu5Gc(a2-3)Gal(b1-4)GlcNAc
Method in brief: as §1

[44] = biological target: Neu5Gc(a2-8)Neu5Gc(a2-3)Gal(b1-4)GlcNAc(b1-3)Gal(b1-4)GlcNAc
Method in brief: as §1

[45] = biological target: Neu5Gc(a2-8)Neu5Gc(a2-6)Gal(b1-4)GlcNAc
Method in brief: as §1

[46] = biological target: Neu5Gc(b2-6)Gal(b1-4)GlcNAc
Method in brief: as §1

B1: GroEL (Clostridium difficile), Q18CT5 (protein)
chain: MAKEIKFSEETRRALEAGVNKLADTVKVTLGPKGRNVILDKKFGSPLITNDGVTIAKEIELEDRFENMGAQLVKEVATKTNDVAGDGTTTATVLAQAIIREGLKNVTAGANPILLRKGIQKAVTVAVEELKNQSRIVETQEAISQVASISAGDEEVGKLIAEAMEIVGKDGVITVEESQTMNTELDAVEGMQFDRGFVSAYMVTDVDKMEAVLNDPYILITDKKISNIQELLPVLEQIVQQGKKLLIIAEDVEGEALSTLVVNKLRGTFDVVAVKAPGFGDRRKEMLQDIAILTGAQVISEELGYDLKEADLSMLGRASSVKVTKESTTIVDGSGDKKAIEDRVTQIKHQVEQTTSDFDREKLMERLAKLAGGVAVVKVGAATEVELKERKLRIEDALNATRAAVEEGIVAGGGTAFVSVIPAIGTLIESLEGEVKLGAQIVKKALEEPLRQIAINAGLEGAVIVQNVVNSEAETGFDALNEKYVNMIEAGIVDPTKVSRSALQNAASIASTFLTTEAAVADLPEKEDAGMPGMGGGMPGMM
[1]
  glycan array binding signal (z-score): -0.993
[2]
  glycan array binding signal (z-score): 0.588
[3]
  glycan array binding signal (z-score): -0.565
[4]
  glycan array binding signal (z-score): -0.305
[5]
  glycan array binding signal (z-score): -0.444
[6]
  glycan array binding signal (z-score): -1.37
[7]
  glycan array binding signal (z-score): -0.56
[8]
  glycan array binding signal (z-score): -1.58
[9]
  glycan array binding signal (z-score): -0.766
[10]
  glycan array binding signal (z-score): -0.2
[11]
  glycan array binding signal (z-score): -0.935
[12]
  glycan array binding signal (z-score): 1.25
[13]
  glycan array binding signal (z-score): 1.08
[14]
  glycan array binding signal (z-score): -0.857
[15]
  glycan array binding signal (z-score): -0.077
[16]
  glycan array binding signal (z-score): -0.528
[17]
  glycan array binding signal (z-score): 0.329
[18]
  glycan array binding signal (z-score): -0.904
[19]
  glycan array binding signal (z-score): -0.387
[20]
  glycan array binding signal (z-score): 0.562
[21]
  glycan array binding signal (z-score): 0.103
[22]
  glycan array binding signal (z-score): -0.079
[23]
  glycan array binding signal (z-score): 0.028
[24]
  glycan array binding signal (z-score): 1.2
[25]
  glycan array binding signal (z-score): -0.437
[26]
  glycan array binding signal (z-score): -0.254
[27]
  glycan array binding signal (z-score): 1.71
[28]
  glycan array binding signal (z-score): -1.21
[29]
  glycan array binding signal (z-score): 0.421
[30]
  glycan array binding signal (z-score): -0.894
[31]
  glycan array binding signal (z-score): -0.753
[32]
  glycan array binding signal (z-score): -1.33
[33]
  glycan array binding signal (z-score): -0.449
[34]
  glycan array binding signal (z-score): -0.004
[35]
  glycan array binding signal (z-score): 0.412
[36]
  glycan array binding signal (z-score): 2.02
[37]
  glycan array binding signal (z-score): -0.652
[38]
  glycan array binding signal (z-score): 0.016
[39]
  glycan array binding signal (z-score): -0.437
[40]
  glycan array binding signal (z-score): 1.41
[41]
  glycan array binding signal (z-score): -0.254
[42]
  glycan array binding signal (z-score): -0.545
[43]
  glycan array binding signal (z-score): -0.482
[44]
  glycan array binding signal (z-score): 0.165
[45]
  glycan array binding signal (z-score): -0.471
[46]
  glycan array binding signal (z-score): 0.305
